Data as given in PubChem BioAssay AID1224830 (NIAID, 2016).
Assay: 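Host factors that control LPS-induced TNF expression in human macrophages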 (primary screen). Cells: human THP-1 monocytic leukaemia cells, TNF dual-luciferase reporter clone, PMA-differentiated to macrophage-like cells. Reagents: siRNA pool against human genes, 50 nM. Time to read-out: LPS for 4 h, given about 3 days after siRNA transfection. Treatment: bacterial LPS (TLR4 ligand), 10 ng/ml. Read-out: 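TNF firefly reporter luminescence divided by renilla, normalised to the plate median, then turned into a robust z-score for each replicate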. Reading the numbers: TNF reporter robust z-score: higher = stronger TNF reporter response to LPS. Call rule: 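Each well counts as active if its z-score is over 2.8 or under -1.5; controls are left without a call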.
Here is an unselected part of about 18,000 reagents. About 2,900 of them (16%) were called active. 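Calls are made per well; low scores hint the gene aids the LPS response, high scores that it dampens it.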 Repeated entries: four replicate wells of each siRNA pool.

TNF reporter robust z-score | Call | gene knocked down
0.37 | inactive | MSN (moesin)
0.03 | inactive | MSN (moesin)
-0.55 | inactive | MSN (moesin)
-1.27 | inactive | MSN (moesin)
-1.01 | inactive | XAGE3 (X antigen family member 3)
-0.27 | inactive | XAGE3 (X antigen family member 3)
-1 | inactive | XAGE3 (X antigen family member 3)
-0.21 | inactive | XAGE3 (X antigen family member 3)
0.4 | inactive | SHE (Src homology 2 domain containing E)
0.15 | inactive | SHE (Src homology 2 domain containing E)
-0.7 | inactive | SHE (Src homology 2 domain containing E)
0.46 | inactive | SHE (Src homology 2 domain containing E)
2.48 | inactive | UCN3 (urocortin 3)
3.89 | active | UCN3 (urocortin 3)
2.29 | inactive | UCN3 (urocortin 3)
3.07 | active | UCN3 (urocortin 3)
1.47 | inactive | FASTKD2 (FASTK mitochondrial RNA regulator 2)
1.43 | inactive | FASTKD2 (FASTK mitochondrial RNA regulator 2)
0.3 | inactive | FASTKD2 (FASTK mitochondrial RNA regulator 2)
0.29 | inactive | FASTKD2 (FASTK mitochondrial RNA regulator 2)
0.28 | inactive | BAZ1B (bromodomain adjacent to zinc finger domain 1B)
-1.15 | inactive | BAZ1B (bromodomain adjacent to zinc finger domain 1B)
-0.83 | inactive | BAZ1B (bromodomain adjacent to zinc finger domain 1B)
-2.26 | active | BAZ1B (bromodomain adjacent to zinc finger domain 1B)
-1.2 | inactive | FAM241B (family with sequence similarity 241 member B)
1.94 | inactive | FAM241B (family with sequence similarity 241 member B)
-0.79 | inactive | FAM241B (family with sequence similarity 241 member B)
-0.5 | inactive | FAM241B (family with sequence similarity 241 member B)
0.67 | inactive | FCGR1BP (Fc gamma receptor Ib, pseudogene)
-0.45 | inactive | FCGR1BP (Fc gamma receptor Ib, pseudogene)
0.26 | inactive | FCGR1BP (Fc gamma receptor Ib, pseudogene)
0.39 | inactive | FCGR1BP (Fc gamma receptor Ib, pseudogene)
-1 | inactive | PTMA (prothymosin alpha)
-1.06 | inactive | PTMA (prothymosin alpha)
-1.32 | inactive | PTMA (prothymosin alpha)
-1.38 | inactive | PTMA (prothymosin alpha)
-0.84 | inactive | FXR1 (FMR1 autosomal homolog 1)
-0.78 | inactive | FXR1 (FMR1 autosomal homolog 1)
0.29 | inactive | FXR1 (FMR1 autosomal homolog 1)
-0.24 | inactive | FXR1 (FMR1 autosomal homolog 1)
1.01 | inactive | TRMT2A (tRNA methyltransferase 2A)
0.88 | inactive | TRMT2A (tRNA methyltransferase 2A)
1.02 | inactive | TRMT2A (tRNA methyltransferase 2A)
0.65 | inactive | TRMT2A (tRNA methyltransferase 2A)
-1.27 | inactive | TOR4A (torsin family 4 member A)
-1.3 | inactive | TOR4A (torsin family 4 member A)
-1.04 | inactive | TOR4A (torsin family 4 member A)
-1.14 | inactive | TOR4A (torsin family 4 member A)

More entries follow:
TNF reporter robust z-score | Call | gene knocked down
2.26 | inactive | TMEM71 (transmembrane protein 71)
3.02 | active | TMEM71 (transmembrane protein 71)
2.3 | inactive | TMEM71 (transmembrane protein 71)
2.14 | inactive | TMEM71 (transmembrane protein 71)
2.27 | inactive | H2BC10 (H2B clustered histone 10)
0.98 | inactive | H2BC10 (H2B clustered histone 10)
1.75 | inactive | H2BC10 (H2B clustered histone 10)
2.85 | active | H2BC10 (H2B clustered histone 10)
0.92 | inactive | HAGHL (hydroxyacylglutathione hydrolase like)
0.55 | inactive | HAGHL (hydroxyacylglutathione hydrolase like)
-0.21 | inactive | HAGHL (hydroxyacylglutathione hydrolase like)
-0.13 | inactive | HAGHL (hydroxyacylglutathione hydrolase like)
1.66 | inactive | CRYGC (crystallin gamma C)
1.6 | inactive | CRYGC (crystallin gamma C)
1.44 | inactive | CRYGC (crystallin gamma C)
2.43 | inactive | CRYGC (crystallin gamma C)
-0.38 | inactive | TATDN3 (TatD DNase domain containing 3)
-0.55 | inactive | TATDN3 (TatD DNase domain containing 3)
-1.03 | inactive | TATDN3 (TatD DNase domain containing 3)
0.26 | inactive | TATDN3 (TatD DNase domain containing 3)
-0.47 | inactive | ZBED4 (zinc finger BED-type containing 4)
0.76 | inactive | ZBED4 (zinc finger BED-type containing 4)
-0.35 | inactive | ZBED4 (zinc finger BED-type containing 4)
-0.15 | inactive | ZBED4 (zinc finger BED-type containing 4)
-0.68 | inactive | PLAU (plasminogen activator, urokinase)
0.33 | inactive | PLAU (plasminogen activator, urokinase)
-0.61 | inactive | PLAU (plasminogen activator, urokinase)
0.93 | inactive | PLAU (plasminogen activator, urokinase)
-0.88 | inactive | MT1G (metallothionein 1G)
-1.01 | inactive | MT1G (metallothionein 1G)
-1.32 | inactive | MT1G (metallothionein 1G)
-0.48 | inactive | MT1G (metallothionein 1G)
1.19 | inactive | PGK1 (phosphoglycerate kinase 1)
-0.97 | inactive | PGK1 (phosphoglycerate kinase 1)
-1.41 | inactive | PGK1 (phosphoglycerate kinase 1)
1.04 | inactive | PGK1 (phosphoglycerate kinase 1)
-0.7 | inactive | RAB35 (RAB35, member RAS oncogene family)
-0.56 | inactive | RAB35 (RAB35, member RAS oncogene family)
-1.36 | inactive | RAB35 (RAB35, member RAS oncogene family)
-0.93 | inactive | RAB35 (RAB35, member RAS oncogene family)
-0.29 | inactive | TUT7 (terminal uridylyl transferase 7)
-1.47 | inactive | TUT7 (terminal uridylyl transferase 7)
-1.97 | active | TUT7 (terminal uridylyl transferase 7)
-1.61 | active | TUT7 (terminal uridylyl transferase 7)
0.51 | inactive | APOA2 (apolipoprotein A2)
0.07 | inactive | APOA2 (apolipoprotein A2)
0.25 | inactive | APOA2 (apolipoprotein A2)
-0.17 | inactive | APOA2 (apolipoprotein A2)
1.13 | inactive | DOC2A (double C2 domain alpha)
1.58 | inactive | DOC2A (double C2 domain alpha)
0.69 | inactive | DOC2A (double C2 domain alpha)
0.27 | inactive | DOC2A (double C2 domain alpha)
4.79 | active | DCUN1D2 (defective in cullin neddylation 1 domain containing 2)
0.16 | inactive | DCUN1D2 (defective in cullin neddylation 1 domain containing 2)
2.12 | inactive | DCUN1D2 (defective in cullin neddylation 1 domain containing 2)
0.38 | inactive | DCUN1D2 (defective in cullin neddylation 1 domain containing 2)
-1.25 | inactive | SDCCAG8 (SHH signaling and ciliogenesis regulator SDCCAG8)
2.3 | inactive | SDCCAG8 (SHH signaling and ciliogenesis regulator SDCCAG8)
0.23 | inactive | SDCCAG8 (SHH signaling and ciliogenesis regulator SDCCAG8)
0.88 | inactive | SDCCAG8 (SHH signaling and ciliogenesis regulator SDCCAG8)
0.77 | inactive | SNX24 (sorting nexin 24)
0.74 | inactive | SNX24 (sorting nexin 24)
0.76 | inactive | SNX24 (sorting nexin 24)
-1.05 | inactive | SNX24 (sorting nexin 24)
0.18 | inactive | DHX9 (DExH-box helicase 9)
-0.66 | inactive | DHX9 (DExH-box helicase 9)
-0.54 | inactive | DHX9 (DExH-box helicase 9)
-0.58 | inactive | DHX9 (DExH-box helicase 9)
1.37 | inactive | DOLK (dolichol kinase)
1.44 | inactive | DOLK (dolichol kinase)
0.1 | inactive | DOLK (dolichol kinase)
0.88 | inactive | DOLK (dolichol kinase)
0.25 | inactive | ZNF579 (zinc finger protein 579)
-0.23 | inactive | ZNF579 (zinc finger protein 579)
-0.5 | inactive | ZNF579 (zinc finger protein 579)
0.28 | inactive | ZNF579 (zinc finger protein 579)
-1.11 | inactive | GNG3 (G protein subunit gamma 3)
-0.72 | inactive | GNG3 (G protein subunit gamma 3)
-0.67 | inactive | GNG3 (G protein subunit gamma 3)
-0.91 | inactive | GNG3 (G protein subunit gamma 3)
-0.3 | inactive | PRSS21 (serine protease 21)
1.75 | inactive | PRSS21 (serine protease 21)
-0.13 | inactive | PRSS21 (serine protease 21)
-0.09 | inactive | PRSS21 (serine protease 21)
-0.59 | inactive | HLA-DMA (major histocompatibility complex, class II, DM alpha)
-0.31 | inactive | HLA-DMA (major histocompatibility complex, class II, DM alpha)
-0.75 | inactive | HLA-DMA (major histocompatibility complex, class II, DM alpha)
-0.51 | inactive | HLA-DMA (major histocompatibility complex, class II, DM alpha)
0.42 | inactive | NOXA1 (NADPH oxidase activator 1)
0.02 | inactive | NOXA1 (NADPH oxidase activator 1)
-0.05 | inactive | NOXA1 (NADPH oxidase activator 1)
0.77 | inactive | GREM2 (gremlin 2, DAN family BMP antagonist)
2.31 | inactive | GREM2 (gremlin 2, DAN family BMP antagonist)
-0.46 | inactive | GREM2 (gremlin 2, DAN family BMP antagonist)
-0.47 | inactive | GREM2 (gremlin 2, DAN family BMP antagonist)
